Test results taken from PubChem BioAssay AID328 (DTP/NCI, 2004).
The list is a part of this screen's results and no random one: it gathers tests that were run many times, whatever their T/C, doses with no T/C, and many T/C values between a quarter and a half above the control. Further doses and runs are listed elsewhere. T/C is the treated group as % of the vehicle group. Some doses have a count of surviving animals in place of a T/C: the source holds a T/C of zero for them, seemingly a mark for toxic or unscored doses. Some survivor counts are full or nearly so, which does not show that the dose was tolerated: the source hardly ever lists a survival T/C far under the control, and the zero likely stands for such cases as well. Counts of survivors are from the toxicity check (mostly the fifth day) where no day follows; animals may have died later. Schedule codes are those of the source, taken here to give the interval after Q, in days (D) or hours (H), and the number of doses after X. Where survival is the endpoint, this PubChem deposit counts one and a half times the control or more as active, and values a quarter to a half above the control carry no call in these data; other NCI protocols may use other cut-offs.

System: BDF1 mice, P388 leukemia ip, median survival T/C
Assay: NCI In Vivo Anticancer Drug Screen. Data for tumor model P388 Leukemia (intraperitoneal) in B6D2F1 (BDF1) mice
Settings: T/C endpoint: median survival time, higher T/C = longer survival
Procedure, shortened: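 Survival ratio, drug arm over vehicle arm, in mice with a transplanted tumour.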

[1] = dose: 100.0 mg/kg/injection, schedule: Q04DX003 (ip), vehicle: saline with Tween-80
[2] = dose: 200.0 mg/kg/injection, schedule: Q04DX003 (ip), vehicle: saline with Tween-80
[3] = dose: 400.0 mg/kg/injection, schedule: Q04DX003 (ip), vehicle: saline with Tween-80
[4] = dose: 400.0 mg/kg/injection, schedule: Q01DX009 (ip), vehicle: saline
[5] = dose: 25.0 mg/kg/injection, schedule: Q01DX009 (ip), vehicle: saline with Tween-80
[6] = dose: 25.0 mg/kg/injection, schedule: Q01DX009 (ip), vehicle: Klucel (hydroxypropylcellulose) (HPC)
[7] = dose: 5.0 mg/kg/injection, schedule: Q04DX003 (ip), vehicle: other

SMILES: COc1ccc(C2C=C(C)Oc3c2c(=O)oc2ccccc32)cc1OC (stereo unspecified)
- survivor count (dose: 25.0 mg/kg/injection, schedule: Q01DX009 (ip), vehicle: water): 5 of 6
- survivor count (dose: 50.0 mg/kg/injection, schedule: Q01DX009 (ip), vehicle: water): 6 of 6
- survivor count (dose: 100.0 mg/kg/injection, schedule: Q01DX009 (ip), vehicle: water): 6 of 6
- survivor count (dose: 200.0 mg/kg/injection, schedule: Q01DX009 (ip), vehicle: water): 3 of 6
- survivor count (dose: 400.0 mg/kg/injection, schedule: Q01DX009 (ip), vehicle: water): 3 of 6

SMILES: [O-][n+]1ccccc1Br
- survivor count (dose: 200.0 mg/kg/injection, schedule: Q04DX003 (ip), vehicle: water): 4 of 6
- survivor count (dose: 400.0 mg/kg/injection, schedule: Q04DX003 (ip), vehicle: water): 0 of 6

SMILES: CC(C)(C)NCC(CNC(C)(C)C)C(=O)c1ccccc1
- survivor count [1]: 0 of 6
- survivor count [2]: 0 of 6
- survivor count [3]: 0 of 6

SMILES: COC(=O)c1c(-c2ccccc2)c(-c2ccccc2)nn(-c2ccccc2)c1=O
- T/C (dose: 100.0 mg/kg/injection, schedule: Q01DX001 (ip), vehicle: saline with Tween-80): 125 % of control
- T/C (dose: 200.0 mg/kg/injection, schedule: Q01DX001 (ip), vehicle: saline with Tween-80): 132 % of control

SMILES: C[C@]12CCC(=O)C=C1CC[C@H]1[C@@H]3C[C@@H](O)[C@](O)(C(=O)CO)[C@@]3(C)C[C@H](O)[C@@]12F
- survivor count [4]: 6 of 6

SMILES: Nc1ccc(C(OC(=O)c2cc3ccccc3c(Cc3c(O)c(C(=O)OC(c4ccc(N)cc4)(c4ccc(N)cc4)c4ccc(N)cc4)cc4ccccc34)c2O)(c2ccc(N)cc2)c2ccc(N)cc2)cc1
- T/C (dose: 3.13 mg/kg/injection, schedule: Q01DX009 (ip), vehicle: saline with Tween-80): 141 % of control
- T/C (dose: 6.25 mg/kg/injection, schedule: Q01DX009 (ip), vehicle: saline with Tween-80): 149 % of control
- survivor count [5]: 4 of 6

SMILES: [Cl][Hg][CH2]CC1CC=CCC1 (stereo unspecified)
- survivor count [5]: 2 of 6

SMILES: CC(=O)[C@@]12OC(C)(C)O[C@@H]1C[C@H]1[C@@H]3C[C@H](C)C4=CC(=O)CC[C@]4(C)[C@H]3CC[C@@]12C
- survivor count (dose: 400.0 mg/kg/injection, schedule: Q01DX009 (ip), vehicle: saline with Tween-80): 2 of 6

SMILES: CCCCCCCCCCCCCC[S+](C)C
- survivor count (dose: 50.0 mg/kg/injection, schedule: Q01DX009 (ip), vehicle: saline): 0 of 6
- survivor count (dose: 100.0 mg/kg/injection, schedule: Q04DX003 (ip), vehicle: saline): 0 of 6

SMILES: COc1ccc(-c2cc(C)n(C)[n+]2C)cc1
- survivor count (dose: 50.0 mg/kg/injection, schedule: Q01DX009 (ip), vehicle: saline with Tween-80): 2 of 6

SMILES: NNC(=S)N/N=C/c1ccc([N+](=O)[O-])s1
- survivor count (dose: 400.0 mg/kg/injection, schedule: Q01DX009 (ip), vehicle: Klucel (hydroxypropylcellulose) (HPC)): 5 of 6

SMILES: CCCCC(=O)N(c1ccc(Nc2c3ccccc3nc3cc([N+](=O)[O-])ccc23)cc1)S(C)(=O)=O
- T/C (dose: 1.46 mg/kg/injection, schedule: Q04DX003 (ip), vehicle: saline with Tween-80): 145 % of control
- T/C (dose: 22.0 mg/kg/injection, schedule: Q04DX003 (ip), vehicle: saline with Tween-80): 129 % of control
- survivor count [1]: 6 of 6
- survivor count [2]: 6 of 6
- survivor count [3]: 5 of 6

SMILES: COc1c(C=O)c2c(c(OC)c1OC)-c1ccc(OC)c(=O)cc1[C@@H](NC(C)=O)CC2
- survivor count (dose: 12.5 mg/kg/injection, schedule: Q01DX009 (ip), vehicle: Klucel (hydroxypropylcellulose) (HPC)): 6 of 6
- survivor count [6]: 5 of 6
- survivor count (dose: 50.0 mg/kg/injection, schedule: Q01DX009 (ip), vehicle: Klucel (hydroxypropylcellulose) (HPC)): 0 of 6
- survivor count (dose: 100.0 mg/kg/injection, schedule: Q01DX009 (ip), vehicle: Klucel (hydroxypropylcellulose) (HPC)): 0 of 6
- survivor count (dose: 200.0 mg/kg/injection, schedule: Q01DX009 (ip), vehicle: Klucel (hydroxypropylcellulose) (HPC)): 0 of 6

SMILES: CCCCc1ccc(NC(=O)N(CCCl)N=O)cc1
- T/C (dose: 1.25 mg/kg/injection, schedule: Q01DX009 (ip), vehicle: Klucel (hydroxypropylcellulose) (HPC)): 145 % of control
- T/C (dose: 2.5 mg/kg/injection, schedule: Q04DX003 (ip), vehicle: other): 127 % of control
- T/C [7]: 140 % of control
- survivor count (dose: 32.25 mg/kg/injection, schedule: Q04DX003 (ip), vehicle: Klucel (hydroxypropylcellulose) (HPC)): 6 of 6
- survivor count (dose: 62.5 mg/kg/injection, schedule: Q01DX009 (ip), vehicle: Klucel (hydroxypropylcellulose) (HPC)): 3 of 6
- survivor count (dose: 62.5 mg/kg/injection, schedule: Q04DX003 (ip), vehicle: Klucel (hydroxypropylcellulose) (HPC)): 5 of 6
- survivor count (dose: 125.0 mg/kg/injection, schedule: Q01DX009 (ip), vehicle: Klucel (hydroxypropylcellulose) (HPC)): 1 of 6
- survivor count (dose: 125.0 mg/kg/injection, schedule: Q04DX003 (ip), vehicle: Klucel (hydroxypropylcellulose) (HPC)): 1 of 6
- survivor count (dose: 250.0 mg/kg/injection, schedule: Q01DX009 (ip), vehicle: Klucel (hydroxypropylcellulose) (HPC)): 0 of 6
- survivor count (dose: 250.0 mg/kg/injection, schedule: Q04DX003 (ip), vehicle: Klucel (hydroxypropylcellulose) (HPC)): 0 of 6
- survivor count (dose: 500.0 mg/kg/injection, schedule: Q04DX003 (ip), vehicle: Klucel (hydroxypropylcellulose) (HPC)): 0 of 6

SMILES: CCOc1cc(N2CCOCC2)c(OCC)cc1N
- survivor count (dose: 100.0 mg/kg/injection, schedule: Q01DX001 (ip), vehicle: saline): 2 of 6
- survivor count (dose: 200.0 mg/kg/injection, schedule: Q01DX001 (ip), vehicle: saline): 0 of 6
- survivor count (dose: 400.0 mg/kg/injection, schedule: Q01DX001 (ip), vehicle: saline): 0 of 6

SMILES: c1ccc(CN2CCn3nccc32)cc1
- survivor count (dose: 200.0 mg/kg/injection, schedule: Q01DX009 (ip), vehicle: other): 6 of 6

SMILES: CCC[CH2][Sn]1([CH2]CCC)[O]OC(c2ccccc2)[O]1 (stereo unspecified)
- T/C (dose: 2.0 mg/kg/injection, schedule: Q01DX009 (ip), vehicle: saline with Tween-80): 142 % of control
- survivor count (dose: 3.3 mg/kg/injection, schedule: Q01DX009 (ip), vehicle: other): 5 of 6
- survivor count (dose: 5.0 mg/kg/injection, schedule: Q01DX009 (ip), vehicle: other): 5 of 6
- survivor count [7]: 2 of 6
- T/C (dose: 6.0 mg/kg/injection, schedule: Q01DX009 (ip), vehicle: saline with Tween-80): 140 % of control
- survivor count (dose: 7.5 mg/kg/injection, schedule: Q01DX009 (ip), vehicle: other): 0 of 6
- survivor count (dose: 10.0 mg/kg/injection, schedule: Q04DX003 (ip), vehicle: other): 0 of 6
- survivor count (dose: 20.0 mg/kg/injection, schedule: Q01DX009 (ip), vehicle: saline with Tween-80): 1 of 6

SMILES: CCC/C=C/C=C/C1CC(O)C(O)C(=O)C1C=O (stereo unspecified)
- survivor count (dose: 100.0 mg/kg/injection, schedule: Q01DX009 (ip), vehicle: saline with Tween-80): 0 of 6

SMILES: O=C(CC(=O)C(F)(F)C(F)(F)C(F)(F)F)c1csc2ccccc12
- survivor count [6]: 6 of 6
- survivor count (dose: 200.0 mg/kg/injection, schedule: Q01DX009 (ip), vehicle: saline): 5 of 6
- survivor count [4]: 2 of 6

SMILES: O=C1OC(O)C(Cl)=C1Cl (stereo unspecified)
- T/C (dose: 3.12 mg/kg/injection, schedule: Q01DX009 (ip), vehicle: saline with Tween-80): 132 % of control

SMILES: COc1cc2c3c4c1OCc1c5c(cc(c1-4)CC3[N+](C)(C)CC2)OCO5 (stereo unspecified)
- survivor count (dose: 25.0 mg/kg/injection, schedule: Q01DX001 (ip), vehicle: saline): 0 of 6
